Assay: Dehydration and pulverization of plain yogurt by non-reducing saccharide
Parameters: key: ◯: when the solids were easily pulverized; Δ: when the dehydration of the resulting mixtures was rather insufficient and the pulverization of solids was substantially difficult, though the resulting mixtures were solidified; when the dehydration of the resulting mixtures was insufficient and could not be pulverized by a pulverizer
Conditions: 25° C., 24 hours
Protocol: The anhydrous crystalline cyclotetrasaccharide; crystalline cyclotetrasaccharide, monohydrate; and anhydrous amorphous cyclotetrasaccharide were respectively prepared by the methods in Examples A-1, A-2, and A-3. As the crystalline α,α-trehalose, dihydrate, a commercially available “TREHA®” commercialized by Hayashibara Shoji Inc., Okayama, Japan, was used. The anhydrous crystalline α,α-trehalose and the anhydrous amorphous α,α-trehalose used in this experiment were prepared from a commercialized crystalline α,α-trehalose, dihydrate, using the methods disclosed in Examples for Reference 1 and 3 in Japanese Patent Kokai No. 170,221/94. To four parts by weight of a plain yogurt with a moisture content of about 77% was added either of the above saccharides in an amount of 11 to 16 parts by weight. The resultant mixtures were respectively placed in vats, allowed to stand at 25° C. for 24 hours, and macroscopically observed their change on standing. The judgement was conducted in such a manner of sufficiently dehydrating the resulting mixtures to be solidified, subjected to a pulverizer for pulverization, and evaluated as “◯”, when the solids were easily pulverized; “Δ”, when the dehydration of the resulting mixtures was rather insufficient and the pulverization of solids was substantially difficult, though the resulting mixtures were solidified; and “x”, when the dehydration of the resulting mixtures was insufficient and could not be pulverized by a pulverizer.

For `OC[C@H]1O[C@@H]2OC[C@H]3O[C@H](O[C@@H]4[C@@H](O)[C@@H](OC[C@H]5O[C@H](O[C@H]([C@H]2O)[C@@H]1O)[C@H](O)[C@@H](O)[C@@H]5O)O[C@H](CO)[C@H]4O)[C@H](O)[C@@H](O)[C@@H]3O` [Saccharide A, anhydrous crystalline cyclotetrasaccharide], the “dehydration and pulverization of plain yogurt” value (shortened to “dehydration and pulverization”) (12 parts by weight of saccharide to four parts by weight of plain yogurt (moisture about 77%)) was “Δ”.
With `OC[C@H]1O[C@H](O[C@H]2O[C@H](CO)[C@@H](O)[C@H](O)[C@H]2O)[C@H](O)[C@@H](O)[C@@H]1O` [Saccharide E, anhydrous crystalline α,α-trehalose, reference compound] the “dehydration and pulverization” value (15 parts by weight of saccharide to four parts by weight of plain yogurt (moisture about 77%)) was “Δ”.
In the case of “crystalline cyclotetrasaccharide, monohydrate [Saccharide B]”, the “dehydration and pulverization” value (14 parts by weight of saccharide to four parts by weight of plain yogurt (moisture about 77%)) is reported as “Δ”.

Reference: patent publication US7186701B2, “Dehydrating agent and method for dehydrating moist article using the agent and dehydrated article obtained by the method” (Kabushiki Kaisha Hayashibara Seibutsu Kagaku Kenkyujo, priority 2001, dated 2007)
